Source: PubChem BioAssay AID504744 (Drosophila RNAi Screening Center, 2011)
Purpose: 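Identify dsRNAs that increase or decrease phospho-dAkt after insulin treatment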 (primary screen). Cell system: Drosophila Kc167 cells. Knock-down reagent: long dsRNA against Drosophila genes, 250 ng dsRNA per well of a 384-well plate. Time to read-out: 3 days of knock-down, then overnight serum-free starvation before stimulation. Treatment: bovine insulin at 387 nM for 10 minutes after 12 h without serum. Measurement: 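In-cell antibody fluorescence for phospho-dAkt in each well over DNA-dye signal, with log2 residuals expressed as z-scores adjusted for cell count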. Hit rule: 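Hit in the insulin screen when the two-replicate mean z-score is more extreme than plus or minus 2.5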.
The screen tested about 23,000 reagents; this is an unselected part of those with a known target gene and a result. In the full data, 98 (0.43%) got an active call. 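Only hit calls are given; the phospho-dAkt signals, z-scores and hit direction were not deposited.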 Names joined by + are all predicted targets of the reagent. No sequences are given here.

| predicted target | DRSC id | call |
| --- | --- | --- |
| CG6873 | DRSC20014 | inactive |
| CG8818 | DRSC07275 | inactive |
| Dif (Dorsal-related immunity factor) | DRSC03316 | inactive |
| Tis11 (Tis11 zinc finger protein) | DRSC20293 | inactive |
| CR18275 + CR18166 + CG32817 | DRSC17249 | inactive |
| CG12016 + Dpm2 | DRSC08224 | inactive |
| Obp57e (Odorant-binding protein 57e) | DRSC05891 | inactive |
| CG14518 | DRSC14870 | inactive |
| CG42471 | DRSC01210 | inactive |
| CG7251 | DRSC03039 | inactive |
| CG9368 | DRSC11067 | inactive |
| Hat1 (Histone acetyltransferase 1) | DRSC12298 | inactive |
| CG3719 | DRSC18493 | inactive |
| Ptpa (Phosphotyrosyl phosphatase activator) | DRSC00776 | inactive |
| CG2202 | DRSC19841 | inactive |
| CG4962 | DRSC10464 | inactive |
| Mdr49 (Multi drug resistance 49) | DRSC07466 | inactive |
| CG12499 | DRSC14521 | inactive |
| CG7556 | DRSC20052 | inactive |
| zda (zonda) | DRSC06936 | inactive |
| CG15890 | DRSC19737 | inactive |
| Vps8 (Vacuolar protein sorting 8) | DRSC09705 | inactive |
| glec (gliolectin) | DRSC16958 | inactive |
| CG13698 | DRSC10047 | inactive |
| htk (hat-trick) | DRSC20029 | inactive |
| htk (hat-trick) | DRSC20031 | inactive |
| Caper | DRSC02137 | inactive |
| GckIII (Germinal centre kinase III) | DRSC15729 | inactive |
| CG15638 | DRSC01875 | inactive |
| Pebp1 (Phosphatidylethanolamine-binding protein 1) | DRSC15354 | inactive |
| sano (serrano) | DRSC06165 | inactive |
| CG4393 | DRSC15573 | inactive |
| Nup98-96 (Nucleoporin 98-96kD) | DRSC14209 | inactive |
| Nup98-96 (Nucleoporin 98-96kD) | DRSC14210 | inactive |
| CR33328 (retired record) | DRSC22954 | inactive |
| Sf3b5 (Splicing factor 3b subunit 5) | DRSC14460 | inactive |
| CG34056 | DRSC08374 | inactive |
| Nepl4 (Neprilysin-like 4) | DRSC03239 | inactive |
| Osi23 (Osiris 23) | DRSC15074 | inactive |
| CG2611 | DRSC02710 | inactive |
| Moca-cyp | DRSC15364 | inactive |
| CG33757 | DRSC05159 | inactive |
| AOX2 (Aldehyde oxidase 2) | DRSC15338 | inactive |
| CG13196 | DRSC06321 | inactive |
| eIF3l (eukaryotic translation initiation factor 3 subunit l) | DRSC10530 | inactive |
| sif (still life) | DRSC08759 | inactive |
| sif (still life) | DRSC11395 | inactive |
| sif (still life) | DRSC22065 | inactive |
| sif (still life) | DRSC22828 | inactive |
| Treh (Trehalase) | DRSC04548 | inactive |
| CG8192 | DRSC07101 | inactive |
| CG15771 | DRSC18077 | inactive |
| CG9705 | DRSC11094 | inactive |
| CG42615 | DRSC05121 | inactive |
| CG31816 | DRSC01547 | inactive |
| Alr (Augmenter of liver regeneration) | DRSC19469 | inactive |
| CG7878 | DRSC16330 | inactive |
| CG13962 | DRSC02304 | inactive |
| SppL (Signal peptide peptidase-like) | DRSC15228 | inactive |
| Brr2 (Brr2 U5 snRNP complex subunit) | DRSC10559 | inactive |
| nkt (noktochor) | DRSC10144 | inactive |
| PyK (Pyruvate kinase) | DRSC16806 | inactive |
| CG11786 | DRSC14389 | inactive |
| CG15878 | DRSC08486 | inactive |
| COX1 (retired record) | DRSC21275 | inactive |
| CG12419 (retired record) | DRSC14513 | inactive |
| CG9445 | DRSC05006 | inactive |
| Hpf1 (Histone PARylation factor 1) | DRSC12202 | inactive |
| CG14572 | DRSC11733 | inactive |
| CG2701 | DRSC18590 | inactive |
| tw (twisted) | DRSC18537 | inactive |
| tin (tinman) | DRSC17083 | inactive |
| tin (tinman) | DRSC22853 | inactive |
| Frq2 (Frequenin 2) | DRSC20245 | inactive |
| Mybbp1A (MYB binding protein 1a) | DRSC18788 | inactive |
| CG33775 | DRSC05353 | inactive |
| CG42809 + CG42810 | DRSC02532 | inactive |
| CG42809 + CG42810 | DRSC02533 | inactive |
| CG4927 | DRSC06903 | inactive |
| spd-2 (spindle defective 2) | DRSC09682 | inactive |
| dind (diamond) | DRSC16294 | inactive |
| djl (don juan like) | DRSC12578 | inactive |
| CG17698 | DRSC11907 | inactive |
| beat-VII (beaten path VII) | DRSC13780 | inactive |
| beat-VII (beaten path VII) | DRSC14743 | inactive |
| beat-VII (beaten path VII) | DRSC14744 | inactive |
| beat-VII (beaten path VII) | DRSC22825 | inactive |
| kibra | DRSC14533 | inactive |
| kibra | DRSC16257 | inactive |
| plx (pollux) | DRSC12260 | inactive |
| plx (pollux) | DRSC12385 | inactive |
| plx (pollux) | DRSC22683 | inactive |
| CG7368 | DRSC10826 | inactive |
| CG7368 | DRSC22821 | inactive |
| Osi2 (Osiris 2) | DRSC12174 | inactive |
| CG9029 | DRSC03129 | inactive |
| CG11200 | DRSC06060 | inactive |
| Madm (MLF1-adaptor molecule) | DRSC12129 | inactive |
| CG4839 | DRSC02783 | inactive |
| CG4839 | DRSC02784 | inactive |
| CG1628 | DRSC18109 | inactive |
| CG3349 | DRSC10359 | inactive |
| thetaTry (thetaTrypsin) | DRSC07705 | inactive |
| Idgf2 (Imaginal disc growth factor 2) | DRSC03350 | inactive |
| Arc1 (Activity-regulated cytoskeleton associated protein 1) | DRSC06159 | inactive |
| Rad23 | DRSC17167 | inactive |
| wwk (white walker) | DRSC01941 | inactive |
| CG7126 | DRSC16201 | inactive |
| CG12674 | DRSC00348 | inactive |
| comm2 | DRSC09881 | inactive |
| comm2 | DRSC10877 | inactive |
| Atat (alpha-tubulin acetylase) | DRSC10392 | inactive |
| CG33233 | DRSC08239 | inactive |
| CG15800 | DRSC04271 | inactive |
| CG7992 | DRSC20070 | inactive |
| CG31636 | DRSC02276 | inactive |
| CG31835 + CG42585 | DRSC01412 | inactive |
| Argk2 (Arginine kinase 2) | DRSC10483 | inactive |
| mag (magro) | DRSC11787 | inactive |
| CG14406 | DRSC19592 | inactive |
| Act5C (Actin 5C) | DRSC17723 | inactive |
| siz (schizo) | DRSC11622 | inactive |
| siz (schizo) | DRSC11689 | inactive |
| siz (schizo) | DRSC11690 | inactive |
| ppk29 (pickpocket 29) | DRSC04205 | inactive |
| gsb-n (gooseberry-neuro) | DRSC04021 | inactive |
| gsb-n (gooseberry-neuro) | DRSC04693 | inactive |
| Cenp-C (Centromeric protein-C) | DRSC14371 | inactive |
| CG13654 | DRSC14654 | inactive |
| ringer (ringmaker) | DRSC10455 | inactive |
| aurA (aurora A) | DRSC16905 | inactive |
| CG32313 | DRSC21450 | inactive |
| mRpL52 (mitochondrial ribosomal protein L52) | DRSC06585 | inactive |
| CAH14 (Carbonic anhydrase 14) | DRSC04234 | inactive |
| CAH14 (Carbonic anhydrase 14) | DRSC22160 | inactive |
| Srp54 (Splicing regulatory protein 54) | DRSC03442 | inactive |
| twe (twine) | DRSC03628 | inactive |
| CG3652 | DRSC00624 | inactive |
| CG31279 | DRSC13158 | inactive |
| CG9021 | DRSC03128 | inactive |
| CG1637 | DRSC18865 | inactive |
| CG1637 | DRSC19748 | inactive |
| CG1637 | DRSC19749 | inactive |
| Cpr76Bd (Cuticular protein 76Bd) | DRSC11063 | inactive |
| Gr64a (Gustatory receptor 64a) | DRSC21713 | inactive |
| RpL7-like + CG34164 | DRSC02836 | inactive |
| RpL7-like + CG34164 | DRSC02837 | inactive |
| CG11722 | DRSC14358 | active |
| CG42564 | DRSC12518 | inactive |
| Ndfip (Nedd4 family interacting protein) | DRSC11201 | inactive |
| CG16824 | DRSC02525 | inactive |
| SCCRO3 (Squamous cell carcinoma-related oncogene 3) | DRSC06359 | inactive |
| Obp56c (Odorant-binding protein 56c) | DRSC06552 | inactive |
| Obp56c (Odorant-binding protein 56c) | DRSC22325 | inactive |
| CG31777 | DRSC00201 | inactive |
| CG16837 | DRSC04283 | inactive |
| GluRIB + CG42509 (retired record) | DRSC10258 | inactive |
| GluRIB + CG42509 (retired record) | DRSC11177 | inactive |
| CG4681 | DRSC04481 | inactive |
| CG34462 | DRSC10768 | inactive |
| ecd (ecdysoneless) | DRSC08574 | inactive |
| CG13000 | DRSC19519 | inactive |
| CG8097 | DRSC20079 | inactive |
| anchor | DRSC10861 | inactive |
| CG3071 | DRSC18526 | inactive |
| CG7518 | DRSC16253 | inactive |
| CG4880 | DRSC19923 | inactive |
| Hsp70Bc (Heat shock protein 70 Bc) | DRSC16053 | inactive |
| CG9008 | DRSC01889 | inactive |
| CARPA (Carbonic anhydrase-related protein A) | DRSC17905 | inactive |
| CARPA (Carbonic anhydrase-related protein A) | DRSC21633 | inactive |
| Gpdh3 (Glycerol-3-phosphate dehydrogenase 3) | DRSC13561 | inactive |
| Gpdh3 (Glycerol-3-phosphate dehydrogenase 3) | DRSC15325 | inactive |
| CG5535 | DRSC10514 | inactive |
| CG2898 | DRSC18238 | inactive |
| h-cup (heineken-cup) | DRSC15973 | inactive |
| CG10909 | DRSC14282 | inactive |
| CG17742 (retired record) | DRSC10285 | inactive |
| CG43861 + CG12508 (retired record) | DRSC02170 | inactive |
| pncr004:X (retired record) | DRSC19295 | inactive |
| CG10510 | DRSC11614 | inactive |
| CG15097 | DRSC06526 | inactive |
| CG9240 | DRSC20177 | inactive |
| dgt6 (dim gamma-tubulin 6) | DRSC14424 | inactive |
| CG7611 | DRSC11840 | inactive |
| Or33a (Odorant receptor 33a) | DRSC03386 | inactive |
| CG13766 | DRSC02271 | inactive |
| CG42542 | DRSC15549 | inactive |
| CG42542 | DRSC22264 | inactive |
| CG9436 | DRSC05005 | inactive |
| PH4alphaMP (prolyl-4-hydroxylase-alpha MP) | DRSC17031 | inactive |
| CG1598 | DRSC06598 | inactive |
| CG43127 | DRSC09039 | inactive |
| CG8586 | DRSC07218 | inactive |
| KaiR1D (Kainate-type ionotropic glutamate receptor subunit 1D) | DRSC15516 | inactive |
| Tcs4 (Threonyl-carbamoyl synthesis 4) | DRSC19587 | inactive |
| Pph13 (PvuII-PstI homology 13) | DRSC00775 | inactive |
| CG32523 | DRSC20510 | inactive |
| CG9164 | DRSC19087 | inactive |
| CG9164 | DRSC20162 | inactive |

Records listed so far whose target name starts with E or e:
| predicted target | DRSC id | call |
| --- | --- | --- |
| eIF3l (eukaryotic translation initiation factor 3 subunit l) | DRSC10530 | inactive |
| ecd (ecdysoneless) | DRSC08574 | inactive |
